We go through 1 molecule from US5658916A, “Drug active on the central nervous system, a process for the preparation thereof and pharmaceutical compositions containing it” (Vita-Invest, S.A., priority 1994, dated 1997).

A word on the Ki: it is the dissociation constant of the complex between target and ligand, obtained from inhibition or displacement.

The target of this experiment is α1-adrenergic receptors. The experiment can be described thus: Displacement of 3H-prazosin binding to α1-adrenergic receptors (rat brain cortex). To be noted: read-out: Displacement (Ki, nM) of the binding of 3H-prazosin to α1-adrenergic receptors, 3H-prazosin 0.5 nM, 37° C., 15 min, pH 7.7. Here is the method:
Binding to at adrenergen receptors
These were carried out as described by Morrow et al . […] Rat brain cortical tissue was obtained, with homogenization in 20 volumes of Tris-HCl buffer in ice (50 mM, pH=7.7, 4° C.). The homogenate was centrifuged (25,000 rpm/12 min at 4° C.) and the pellet was rehomogenized, being finally resuspended in 50 mM Tris-HCl buffer, pH=7.7 (dilution 1:200). […] The incubation (37° C., 15 min) was terminated by rapid filtering through Whatman GF/C filters, followed by washing twice with […] of Tris-HCl buffer, 50 mM.

As for `Cc1nc2n(c(=O)c1CCN1CCC(c3noc4cc(F)ccc34)CC1)CCCC2` [Risperidone], the Ki is 7.1 nM.
